Measurements reported in PubChem BioAssay AID1159592 (NIAID, 2016).
In all, the deposit lists 756 reagents; this is a part drawn at random. Over the whole deposit, 147 (19%) were called active. 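Active covers both loss and gain of p65 entry; negative z means weaker NF-kB activation, positive means more nuclear p65.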 Reagents against one gene are numbered here. No sequences are given here. Not stated in the record: the amount of reagent.

- Screen: 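Toll-like receptor pathway genes that R848 needs to send NF-kB into the nucleus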
- Cells: RAW264.7 macrophages from mouse bearing reporters for p65 (GFP) and the Tnf promoter (mCherry)
- Reagents: single siRNA against mouse genes
- Timing: 48 to 72 hours after siRNA transfection
- Treatment: R848 TLR ligand for 40 minutes before fixation; dose not given
- Detection: 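Replicate mean of robust z-score relative to negative-control wells, after median/MAD scaling by plate, for the imaged GFP-p65 nuclear-to-cytoplasmic ratio 40 minutes after R848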
- Direction: NF-kB translocation z-score: higher = more p65 moved into the nucleus than in negative-control wells
- Call rule: 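a call of active needs an averaged z beyond 1.5 in either direction; tiers of absolute z at 1, 1.5, 2 and 2.5 are also set by the depositor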
- Meaning of the calls: active = strong change, either direction; inactive = little change

target	reagent no.	NF-kB translocation z-score, replicate mean	Outcome
Ikbkb (inhibitor of kappaB kinase beta)	1	0.985	inactive
Ikbkb (inhibitor of kappaB kinase beta)	2	-1.21	inactive
Ikbkb (inhibitor of kappaB kinase beta)	3	-2.21	active
Ikbkb (inhibitor of kappaB kinase beta)	4	-0.785	inactive
Ikbkb (inhibitor of kappaB kinase beta)	5	-2.05	active
Ikbkb (inhibitor of kappaB kinase beta)	6	-2.03	active
Ripk1 (receptor (TNFRSF)-interacting serine-threonine kinase 1)	1	-1.46	inactive
Ripk1 (receptor (TNFRSF)-interacting serine-threonine kinase 1)	2	1.03	inactive
Ripk1 (receptor (TNFRSF)-interacting serine-threonine kinase 1)	3	0.962	inactive
Ripk1 (receptor (TNFRSF)-interacting serine-threonine kinase 1)	4	-0.52	inactive
Ripk1 (receptor (TNFRSF)-interacting serine-threonine kinase 1)	5	-1.09	inactive
Ripk1 (receptor (TNFRSF)-interacting serine-threonine kinase 1)	6	0.585	inactive
Mapkapk2 (MAP kinase-activated protein kinase 2)	1	-2.24	active
Mapkapk2 (MAP kinase-activated protein kinase 2)	2	1.01	inactive
Mapkapk2 (MAP kinase-activated protein kinase 2)	3	-0.53	inactive
Mapkapk2 (MAP kinase-activated protein kinase 2)	4	-0.42	inactive
Mapkapk2 (MAP kinase-activated protein kinase 2)	5	0.725	inactive
Mapkapk2 (MAP kinase-activated protein kinase 2)	6	1.42	inactive
Dusp1 (dual specificity phosphatase 1)	1	0.43	inactive
Dusp1 (dual specificity phosphatase 1)	2	1.61	active
Dusp1 (dual specificity phosphatase 1)	3	-0.178	inactive
Dusp1 (dual specificity phosphatase 1)	4	-0.332	inactive
Dusp1 (dual specificity phosphatase 1)	5	-0.122	inactive
Dusp1 (dual specificity phosphatase 1)	6	-0.425	inactive
Tlr3 (toll-like receptor 3)	1	1.06	inactive
Tlr3 (toll-like receptor 3)	2	-0.798	inactive
Tlr3 (toll-like receptor 3)	3	-0.657	inactive
Tlr3 (toll-like receptor 3)	4	-0.194	inactive
Tlr3 (toll-like receptor 3)	5	0.176	inactive
Tlr3 (toll-like receptor 3)	6	0.102	inactive
Il1rl1 (interleukin 1 receptor-like 1)	1	-1.24	inactive
Il1rl1 (interleukin 1 receptor-like 1)	2	-1.11	inactive
Il1rl1 (interleukin 1 receptor-like 1)	3	-0.414	inactive
Il1rl1 (interleukin 1 receptor-like 1)	4	-1.04	inactive
Il1rl1 (interleukin 1 receptor-like 1)	5	-1.73	active
Il1rl1 (interleukin 1 receptor-like 1)	6	-0.938	inactive
Dusp2 (dual specificity phosphatase 2)	1	-0.546	inactive
Dusp2 (dual specificity phosphatase 2)	2	0.321	inactive
Dusp2 (dual specificity phosphatase 2)	3	-0.756	inactive
Dusp2 (dual specificity phosphatase 2)	4	0.082	inactive
Dusp2 (dual specificity phosphatase 2)	5	-1.05	inactive
Dusp2 (dual specificity phosphatase 2)	6	-0.399	inactive
Tlr5 (toll-like receptor 5)	1	-0.165	inactive
Tlr5 (toll-like receptor 5)	2	0.743	inactive
Tlr5 (toll-like receptor 5)	3	0.21	inactive
Tlr5 (toll-like receptor 5)	4	-0.139	inactive
Tlr5 (toll-like receptor 5)	5	-1.22	inactive
Tlr5 (toll-like receptor 5)	6	0.0147	inactive
Mapk9 (mitogen-activated protein kinase 9)	1	-0.884	inactive
Mapk9 (mitogen-activated protein kinase 9)	2	-0.00345	inactive
Mapk9 (mitogen-activated protein kinase 9)	3	-0.62	inactive
Mapk9 (mitogen-activated protein kinase 9)	4	0.18	inactive
Mapk9 (mitogen-activated protein kinase 9)	5	-0.693	inactive
Mapk9 (mitogen-activated protein kinase 9)	6	0.334	inactive
Map2k4 (mitogen-activated protein kinase kinase 4)	1	0.225	inactive
Map2k4 (mitogen-activated protein kinase kinase 4)	2	-0.0793	inactive
Map2k4 (mitogen-activated protein kinase kinase 4)	3	-0.0562	inactive
Map2k4 (mitogen-activated protein kinase kinase 4)	4	-1.79	active
Map2k4 (mitogen-activated protein kinase kinase 4)	5	-0.612	inactive
Map2k4 (mitogen-activated protein kinase kinase 4)	6	0.103	inactive
Map2k2 (mitogen-activated protein kinase kinase 2)	1	-0.0156	inactive
Map2k2 (mitogen-activated protein kinase kinase 2)	2	-1.34	inactive
Map2k2 (mitogen-activated protein kinase kinase 2)	3	-1.02	inactive
Map2k2 (mitogen-activated protein kinase kinase 2)	4	-1.04	inactive
Map2k2 (mitogen-activated protein kinase kinase 2)	5	-1.21	inactive
Map2k2 (mitogen-activated protein kinase kinase 2)	6	-0.846	inactive
Traf6 (TNF receptor-associated factor 6)	1	-2.53	active
Traf6 (TNF receptor-associated factor 6)	2	-2.58	active
Traf6 (TNF receptor-associated factor 6)	3	-2.88	active
Traf6 (TNF receptor-associated factor 6)	4	-1.65	active
Traf6 (TNF receptor-associated factor 6)	5	-2.1	active
Traf6 (TNF receptor-associated factor 6)	6	-2.46	active
Pik3r3 (phosphoinositide-3-kinase regulatory subunit 3)	1	1.56	active
Pik3r3 (phosphoinositide-3-kinase regulatory subunit 3)	2	1.83	active
Pik3r3 (phosphoinositide-3-kinase regulatory subunit 3)	3	-1.07	inactive
Pik3r3 (phosphoinositide-3-kinase regulatory subunit 3)	4	-0.112	inactive
Pik3r3 (phosphoinositide-3-kinase regulatory subunit 3)	5	-1.69	active
Pik3r3 (phosphoinositide-3-kinase regulatory subunit 3)	6	-1.17	inactive
Tab3 (TGF-beta activated kinase 1/MAP3K7 binding protein 3)	1	-0.459	inactive
Tab3 (TGF-beta activated kinase 1/MAP3K7 binding protein 3)	2	-0.263	inactive
Tab3 (TGF-beta activated kinase 1/MAP3K7 binding protein 3)	3	-1.28	inactive
Tab3 (TGF-beta activated kinase 1/MAP3K7 binding protein 3)	4	0.364	inactive
Tab3 (TGF-beta activated kinase 1/MAP3K7 binding protein 3)	5	-1.01	inactive
Tab3 (TGF-beta activated kinase 1/MAP3K7 binding protein 3)	6	-0.353	inactive
Pik3r2 (phosphoinositide-3-kinase regulatory subunit 2)	1	-0.882	inactive
Pik3r2 (phosphoinositide-3-kinase regulatory subunit 2)	2	-1.03	inactive
Pik3r2 (phosphoinositide-3-kinase regulatory subunit 2)	3	-0.181	inactive
Pik3r2 (phosphoinositide-3-kinase regulatory subunit 2)	4	-0.561	inactive
Pik3r2 (phosphoinositide-3-kinase regulatory subunit 2)	5	-0.244	inactive
Pik3r2 (phosphoinositide-3-kinase regulatory subunit 2)	6	0.226	inactive
Otud5 (OTU domain containing 5)	1	-0.358	inactive
Otud5 (OTU domain containing 5)	2	-0.0686	inactive
Otud5 (OTU domain containing 5)	3	0.419	inactive
Otud5 (OTU domain containing 5)	4	0.317	inactive
Otud5 (OTU domain containing 5)	5	-1.14	inactive
Otud5 (OTU domain containing 5)	6	-0.254	inactive
Pik3cg	1	-0.424	inactive
Pik3cg	2	-2.38	active
Pik3cg	3	-1.25	inactive
Pik3cg	4	0.395	inactive
Pik3cg	5	-0.723	inactive
Pik3cg	6	-2.38	active
Pik3r1 (phosphoinositide-3-kinase regulatory subunit 1)	1	-2.09	active
Pik3r1 (phosphoinositide-3-kinase regulatory subunit 1)	2	-1.06	inactive
Pik3r1 (phosphoinositide-3-kinase regulatory subunit 1)	3	-0.0748	inactive
Pik3r1 (phosphoinositide-3-kinase regulatory subunit 1)	4	-0.0185	inactive
Pik3r1 (phosphoinositide-3-kinase regulatory subunit 1)	5	-1.93	active
Pik3r1 (phosphoinositide-3-kinase regulatory subunit 1)	6	-0.476	inactive
Ptk2b (PTK2 protein tyrosine kinase 2 beta)	1	0.788	inactive
Ptk2b (PTK2 protein tyrosine kinase 2 beta)	2	1.25	inactive
Ptk2b (PTK2 protein tyrosine kinase 2 beta)	3	0.0247	inactive
Ptk2b (PTK2 protein tyrosine kinase 2 beta)	4	0.37	inactive
Ptk2b (PTK2 protein tyrosine kinase 2 beta)	5	0.0511	inactive
Ptk2b (PTK2 protein tyrosine kinase 2 beta)	6	0.722	inactive

8 of these entries in another layout:
| target | reagent no. | NF-kB translocation z-score, replicate mean | Outcome |
| --- | --- | --- | --- |
| Dusp1 (dual specificity phosphatase 1) | 1 | 0.43 | inactive |
| Dusp1 (dual specificity phosphatase 1) | 2 | 1.61 | active |
| Dusp1 (dual specificity phosphatase 1) | 3 | -0.178 | inactive |
| Dusp1 (dual specificity phosphatase 1) | 4 | -0.332 | inactive |
| Dusp1 (dual specificity phosphatase 1) | 5 | -0.122 | inactive |
| Dusp1 (dual specificity phosphatase 1) | 6 | -0.425 | inactive |
| Tlr3 (toll-like receptor 3) | 1 | 1.06 | inactive |
| Tlr3 (toll-like receptor 3) | 2 | -0.798 | inactive |
